Laboratory results: patent publication US8034930B2, “Boron-dipyrrin compounds comprising thienyl groups, preparation method thereof and chemosensor comprising the same” (Korea Advanced Institute of Science and Technology, priority 2008, dated 2011)

Tests used:
[1] = Hg^2+ detection limit, UV-IR absorption spectrum; details: equates to 20 μL of 1×10^−3 molar Hg^2+ solution; compound 1×10^−5 molar in CH3CN
[2] = Selectivities to metal ions by UV-IR absorption and fluorescence spectroscopy (Hg^2+); details: for alteration of UV-IR absorption spectrum for Hg^2+: compound 1×10^−5 molar in CH3CN, metal perchlorate, ratio 1:1
[3] = Cu^2+ bonding reversibility with Na4EDTA, UV-IR spectroscopy; details: for appearance of solution on addition of EDTA: compound 5×10^−5 molar in CH3CN, Na4EDTA in distilled water
[4] = Selectivities to metal ions by UV-IR absorption and fluorescence spectroscopy (Cu^2+); details: CH3CN solution

Row | Molecule | Hg^2+ detection limit [1] [ppm] | alteration of UV-IR absorption spectrum for Hg^2+ [2] | absorption spectrum pattern after EDTA addition to compound combined with Cu^2+ (bonding reversibility) ([3]; Cu^2+ 15 times, Na4EDTA 30 times compound, CH3CN) | appearance of solution on addition of EDTA [3] | influence of added Hg^2+ on variation of colors and alteration of fluorescent levels ([2]; CH3CN solution) | color variation dependent on Cu^2+ content [4] | fluorescent levels by UV radiation with Cu^2+ [4]
1 | C1=CC2=C(c3cccs3)c3ccc(-c4ccsc4)n3[B-](c3ccsc3)(c3ccsc3)[N+]2=C1 [5a, 3-(3-thienyl)-4,4-di(3-thienyl)-8-(2-thienyl)-4-bora-3a,4a-diaza-s-indacene] | 1.7 | alteration was much less, compared to compound (4b) |  |  |  |  | 
2 | C1=CC2=C(c3ccsc3)c3ccc(-c4cccs4)n3[B-](c3cccs3)(c3cccs3)[N+]2=C1 [4b, 3-(2-thienyl)-4,4-di(2-thienyl)-8-(3-thienyl)-4-bora-3a,4a-diaza-s-indacene] | 1.7 | slightly observed | not exactly identical to the original pattern | became muddy | less influence | from pink to colorless | increase of fluorescent levels
3 | 3-(3-thienyl)-4,4-di(3-thienyl)-8-(3-thienyl)-4-bora-3a,4a-diaza-s-indacene [5b] | 1.7 | alteration was much less, compared to compound (4b) |  | became muddy |  |  | 
4 | C1=CC2=C(c3cccs3)c3ccc(-c4cccs4)n3[B-](c3cccs3)(c3cccs3)[N+]2=C1 [4a, 3-(2-thienyl)-4,4-di(2-thienyl)-8-(2-thienyl)-4-bora-3a,4a-diaza-s-indacene] | 1.7 | alteration was much less, compared to compound (4b) |  |  |  |  | 

Some compounds share one wording; it may come from a single statement.
